{
  "source": "patent US6441030B1",
  "about": "“3-phenyl-pyrones” (Bayer Aktiengesellschaft, priority 1998, dated 2002)",
  "test_system": "peach aphid (Myzus persicae)",
  "assay": "Myzus test (Example A)",
  "format": "in vivo",
  "settings": "active compound concentration of 0.1% in the preparation; infested cabbage leaves (Brassica oleracea) dipped",
  "note": "Some entries share one result that the patent states for a list of compounds.",
  "data": [
    {"smiles": "Cc1cc(Cl)ccc1-c1c(O)c(C)c(-c2ccccn2)oc1=O", "note": "[Example 1, 3-(2-methyl-4-chloro-phenyl)-4-hydroxy-5-methyl-6-(pyrid-2-yl)-pyrone]", "values": [
      {"measurement": "efficacy (kill in %)", "result": "more than 90 per cent"}
    ]}
  ]
}
